From patent US11453702B2 (priority 2018, dated 2022)

Assay: general procedure: Fmoc solid-phase peptide synthesis; CTC Resin (1.17 mmol/g)
Conditions: conjugation step, bicyclic, sequence written open

For MMAE-PABC-Cit-Val-Glutaryl-BCY8234, the conjugation yield was 45.19% yield, the “final purity (method not given)” value (run 1) was 99.30% purity and the “final purity (method not given)” value (run 2) was 99.60%.
